Measurements published in PubChem BioAssay AID504834 (National Center for Advancing Translational Sciences (NCATS), 2011).
About 22,000 (6.9%) of roughly 320,000 compounds were called active. Inconclusive means that the source gave no clear call. Such entries were picked first, then a sample of the others. The call rests on the fitted dose curve; in most records, active means well fitted inhibition curve with a large enough effect; inconclusive means small, poorly fitted or top-dose-only effect, or another doubt; inactive means no such curve, though single readings can be large or run the other way. Potencies beside an inconclusive call are fits to weak or partial responses and may not hold up.

test: Primary qHTS for delayed death inhibitors of the malarial parasite plastid, 96 hour incubation; details: P. falciparum luciferase reporter growth; series mostly up to 28.7 µM
Method in brief: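 96 h incubation, 37 C, 5% CO2, of luciferase-reporter P. falciparum-infected RBCs (2% hematocrit, 0.05% parasitemia final) with test compounds; endpoint luminescence.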
On the % scale 0 is the no-effect control and ±100 the full control effect; potency means the concentration at half of the fitted maximal effect.

Row | Compound | Potency | activity change, negative = inhibition
1 | CCN(CC)C(=O)OCc1c(-c2cccc(OC)c2)ncc2ccccc12 | inconclusive: 7.38 µM [inhibitor, single point] | –
2 | CC(NC(=O)Nc1ccc([N+](=O)[O-])cc1)C(c1cccs1)N1CCCC1 (configuration not stated) | active: 9.28 µM | –
3 | CCCCn1c(N)c(N(CC(C)C)C(=O)c2c(-c3ccccc3)noc2C)c(=O)[nH]c1=O | inconclusive: 18.5 µM [inhibitor, single point] | –
4 | O=C(NCc1ccccc1)c1ccc(S(=O)(=O)Nc2cccc(C(F)(F)F)c2)cc1 | inconclusive: 14.7 µM [inhibitor, single point] | –
5 | CCN(CC)c1ccc(/C=N/N=C(c2ccccc2)c2ccccc2)c(O)c1 | inconclusive: 18.5 µM [inhibitor, single point] | –
6 | O=C(CN1CCN(S(=O)(=O)c2ccccc2)CC1)NCCc1ccccc1 | inactive | –
7 | CCOc1ccc2nc(NC(=O)c3cnc(C)cn3)sc2c1 | inconclusive: 18.5 µM [inhibitor, partial curve, poor fit] | –
8 | COc1ccc(CNC(=O)C(C)Sc2nc3ccccc3c(=O)n2CC2CCCO2)cc1 (configuration not stated) | inconclusive: 18.5 µM [inhibitor, single point] | –
9 | Cc1ccc(NC(=O)CSCC(=O)N(C)Cc2ccc(Cl)c(Cl)c2)cc1 | inconclusive: 18.5 µM [inhibitor, single point] | –
10 | N#Cc1ccc2ccn(CC(=O)NC3CCCCCC3)c2c1 | inconclusive: 18.5 µM [inhibitor, single point] | –
11 | Cc1ccc(NC(=O)COC(=O)c2ccc(S(=O)(=O)N3CCCCC3)cc2)cc1 | inconclusive: 11.7 µM [inhibitor, single point] | –
12 | CCc1cccc(NC(=O)CCc2c(C)nn(-c3ccc(N4CCOCC4)nn3)c2C)c1 | inactive | –
13 | O=C(c1ccco1)N(Cc1ccc([N+](=O)[O-])cc1)c1ccc(Cl)cc1 | inconclusive: 11.7 µM [inhibitor, partial curve, poor fit] | –
14 | COc1cccc(C(=O)NCCOc2cc(C)cc(C)c2)c1 | inconclusive: 18.5 µM [inhibitor, single point] | –
15 | CCOc1cc(C(=O)Nc2ccc(S(=O)(=O)N3CCCCC3)cc2)ccc1OCC(=O)N1CCOCC1 | inconclusive: 8.28 µM [inhibitor, partial curve, poor fit] | –
16 | Cn1c(C(=O)N2CCC(C(N)=O)CC2)cc2c(=O)n(C)c3ccccc3c21 | inconclusive: 1.31 µM [inhibitor, partial curve, poor fit] | –
17 | COc1cc(-c2nc(C(=O)NC3CCCCC3)cc3c2[nH]c2ccccc23)cc(OC)c1OC | inconclusive: 4.15 µM [inhibitor, full curve] | –
18 | CCOc1ccc(CCNC(=O)C2CCC(=O)N2C2CCCCC2)cc1OCC (configuration not stated) | inactive | –
19 | COc1ccccc1/C=C/C=N/NC(=O)c1cc(-c2ccc(C)o2)[nH]n1 | inconclusive: 10.4 µM [inhibitor, single point] | –
20 | CSc1ccccc1C(=O)Nc1cc(C)cc(C)c1 | inactive | –
21 | CCCSCCCNC(=O)CN1C(=O)COc2ccc(S(=O)(=O)N3CCCC3)cc21 | inconclusive: 1.31 µM [inhibitor, partial curve, poor fit] | –

Row | Compound | Potency | activity change, negative = inhibition
22 | CCCNc1sc(S(=O)(=O)CCC)nc1S(=O)(=O)c1ccc(C)cc1 | – | inactive: 57.6% [at 5.75 µM]
23 | CC(C)CCNC(=O)C(=O)NCC1OCCCN1S(=O)(=O)c1cccs1 (configuration not stated) | inconclusive: 18.5 µM [inhibitor, single point] | –
24 | O=C(CSCc1cc(=O)n2ccsc2n1)Nc1ccc(F)cc1 | inconclusive: 18.5 µM [inhibitor, single point] | –
25 | CCOC(=O)N=Nc1c(O)n(Cc2ccccc2)c2ccccc12 | inactive | –
26 | CN(C(=O)c1cccc(C#CC(C)(C)O)c1)C1CCCN(Cc2ccccc2F)C1 (configuration not stated) | inactive | –
27 | CC(=O)Nc1cc(C(C)(C)C)c(O)c(C(C)(C)C)c1 | inactive | –
28 | CC(NC(=O)Nc1cccc(Cl)c1)C(c1cccs1)N1CCCC1 (configuration not stated) | active: 9.28 µM | –
29 | CC1CC(C)CN(CC(=O)NC(c2ccccc2)c2ccccc2)C1 (configuration not stated) | inactive | –
30 | Cc1cccc(NC(=O)CNC(=O)CNC(=O)Cc2ccccc2)c1 | inconclusive: 18.5 µM [inhibitor, single point] | –
31 | Cc1cc(NC(=O)CSc2nnc(-c3ccncc3)n2-c2ccc(F)cc2)no1 | inconclusive: 11.7 µM [inhibitor, single point] | –
32 | COc1cc(C(=O)Nc2nc(-c3ccc(F)cc3)cs2)ccc1OCC(=O)N1CCOCC1 | inconclusive: 18.5 µM [inhibitor, single point] | –
33 | COc1ccccc1N(C)S(=O)(=O)c1ccc(C(=O)OCC(=O)N2CCC2)cc1 | inactive | –
34 | COc1ccc(CC(C)N2CCN(c3ccccc3OC)CC2)cc1OC (configuration not stated) | inconclusive: 18.5 µM [inhibitor, single point] | –
35 | COC(=O)c1cc(NC(=O)N2c3ccccc3Sc3ccccc32)cc(C(=O)OC)c1 | inconclusive: 11.7 µM [inhibitor, single point] | –
36 | CC1CCN(CC(O)Cn2c3ccccc3c3ccccc32)CC1 (configuration not stated) | inconclusive: 9.28 µM [inhibitor, single point] | –
37 | Nn1c(SCc2ccc(C(=O)O)cc2)nnc1-c1ccc(Cl)cc1Cl | inactive | –
38 | NC(=O)CSc1nc2sc(-c3ccccc3)cc2c(=O)n1N | inconclusive: 0.0586 µM [inhibitor, full curve, poor fit] | –
39 | CN(C)CCNc1c2c(c(C#N)c3nc4ccccc4n13)CCCC2 | inconclusive: 18.5 µM [inhibitor, single point] | –
40 | CCCN=Cc1c(CCC)[nH]n(-c2nc3ccccc3s2)c1=O | inconclusive: 2.62 µM [inhibitor, full curve, poor fit] | –
41 | COc1ccc(N(CC(=O)N/N=C/c2ccc(OC)cc2OC)S(=O)(=O)c2ccccc2)cc1 | inconclusive: 11.7 µM [inhibitor, single point] | –
42 | CN(c1ccccc1)S(=O)(=O)c1ccc(C(=O)NCc2ccccc2F)cc1 | inconclusive: 9.28 µM [inhibitor, partial curve, poor fit] | –

An excerpt from above in order of SMILES length, largest number first:
Row | Compound | Potency | activity change, negative = inhibition
37 | Nn1c(SCc2ccc(C(=O)O)cc2)nnc1-c1ccc(Cl)cc1Cl | inactive | –
34 | COc1ccc(CC(C)N2CCN(c3ccccc3OC)CC2)cc1OC (configuration not stated) | inconclusive: 18.5 µM [inhibitor, single point] | –
25 | CCOC(=O)N=Nc1c(O)n(Cc2ccccc2)c2ccccc12 | inactive | –
